From publication PMC2848857, “The Crystal Structure of PPIL1 Bound to Cyclosporine A Suggests a Binding Mode for a Linear Epitope of the SKIP Protein” (PLoS ONE, 2010)
These are yes or no findings as the source states them, for the method shown. Sequences can lack the tags named with a protein.

Target: GST alone
Assay: condition: 50 µg of purified PPIL1 with 20 µl of beads; pull-down; GST or GST-SKIP43-79 on glutathione-sepharose beads; 50 µg purified PPIL1 with 20 µl beads, 2 h at 4°C; washed with TET-150 (150 mM NaCl, 0.1% Triton X-100) or TET-1000 (1 M NaCl); SDS-PAGE, Coomassie; both purified

B1: PPIL1 protein (purified, GST tag cleaved) (enzyme, UniProt Q9Y3C6 1-166)
chain: MAAIPPDSWQPPNVYLETSMGIIVLELYWKHAPKTCKNFAELARRGYYNGTKFHRIIKDFMIQGGDPTGTGRGGASIYGKQFEDELHPDLKFTGAGILAMANAGPDTNGSQFFVTLAPTQWLDGKHTIFGRVCQGIGMVNRVGMVETNSQDRPVDDVKIIKAYPSG
For B1, the binding was “no binding”.
